In one experiment the test system is BALB/3T3. Description: Antiproliferative activity against mouse BALB/3T3 cells incubated for 72 hrs by SRB assay. Type of experiment: ADME, cell-based. As to conditions: BALB/3T3, 72 h. For orientation: In SRB staining, fixed cells bind dye roughly in proportion to their protein.
The nature of another experiment: cells. In kind it is functional, cell-based. As to conditions: Homo sapiens, LoVo/DX, 72 h.
Another experiment deals with MCF7. Description: Antiproliferative activity against human MCF-7 cells incubated for 72 hrs by SRB assay. As to conditions: MCF7, 72 h.
The next experiment concerns A549. Description: Antiproliferative activity against human A549 cells incubated for 72 hrs by SRB assay. As to conditions: A549, 72 h. In kind it is functional, cell-based.
The nature of experiment [1]: Antiproliferative activity against human ALL5 cells incubated for 120 hrs followed by MTT addition further incubated for 48 hrs. In kind it is functional, cell-based.
Another experiment concerns LoVo. Description: Antiproliferative activity against human LoVo cells incubated for 72 hrs by SRB assay. In kind it is functional, cell-based.
Experiment [2] can be described thus: Resistance index, ratio of IC50 for antiproliferative activity against human Lovo/DX cells to IC50 for antiproliferative activity against human LoVo cells. In kind it is functional.

The term IC50 denotes the concentration that inhibits the measured activity by half.

Molecules are shown by their SMILES.

For `COc1cc2c(c(OC)c1OC)-c1ccc(SC)c(=O)cc1[C@@H](N)CC2`, the IC50 in the experiment on BALB/3T3 amounted to 0.223 µM; in the experiment “cells”, 0.145 µM; in the experiment on MCF7 it was 0.0142 µM; in the experiment with A549, 0.0241 µM; in experiment [1] it was 0.0163 µM; in the experiment on LoVo it was 0.0169 µM. The “Ratio IC50” value in experiment [2] is 8.6.

These data come from ChEMBL document CHEMBL4680353, “Synthesis, anticancer activity and molecular docking studies of N-deacetylthiocolchicine and 4-iodo-N-deacetylthiocolchicine derivatives” (Bioorg Med Chem, 2021).
